Patent US20200299389A1
Results are given in words; binding and its absence hold for the method and conditions named. Some results given as binding are weak or reduced against the parent protein; the word gives no strength.

Protein sequences, listed by entry. Tags and fused reporters are not part of them. Lines headed by an entry give the natural chain unless they say otherwise; changes in a name come on top.
UniProt Q9NZQ7: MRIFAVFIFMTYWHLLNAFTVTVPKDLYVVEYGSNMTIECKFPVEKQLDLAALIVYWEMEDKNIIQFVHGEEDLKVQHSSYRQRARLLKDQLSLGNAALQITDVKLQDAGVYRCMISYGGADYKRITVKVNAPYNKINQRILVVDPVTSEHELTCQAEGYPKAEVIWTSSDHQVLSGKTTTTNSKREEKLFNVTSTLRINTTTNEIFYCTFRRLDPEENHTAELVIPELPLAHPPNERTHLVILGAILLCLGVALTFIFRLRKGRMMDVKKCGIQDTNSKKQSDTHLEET

Biological target: human PD-L1 IgG1 Fc chimera (human) (UniProt Q9NZQ7)
Test: phage ELISA screening on PD-L1-Fc

B1: OM-PD-L1-32 (Fab, V domains shown)
VH: QVQLVQSGAKVKKPGSSVKVSCKASGGTFSSYAISWVRQAPGQGLEWMGRIIPILGIANYAQKFQGRVTITADKSTSTAYMELSSLRSEDTAVYYCARVVPGYSYGPFDYWGQGTTVTVSS
VL: QSALTQPASVSGSPGQSITISCTGTSNDVGSYNSVSWYQQHPGKAPKLVIYEVANRPSGVPDRFSGSKSGNTASLTISGLQAEDEADYYCSSYTSSSTLVFGGGTKLTVLG
binding: binds
